Data on 60 sequences can be found in the supplement of paper PMC10338343.

± gives the standard deviation. The list shows a part of the results, in another mix than the full data. The uncertainty is large for many entries.

The experiment deals with MIWI (PIWIL1) piRISC loaded with L1MC piRNA (30 nt). The experiment can be described thus: pre-steady-state target cleavage rate (min^-1); MIWI and MILI are mouse PIWI proteins and EfPiwi is from a freshwater sponge; tags in brackets are library labels; higher = faster piRNA-guided slicing of the target. As to conditions: guide: L1MC piRNA 5'p-UAACUAAAUACUAUGCAAGCUGUAGGUCCU
Put shortly:
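The method was Cleave-'n-Seq, in which uncleaved targets from a transcribed, DNA-blocked target RNA library were sequenced after exposure to active affinity-purified piRISC carrying one synthetic guide, with or without GTSF1 partner protein. Reactions contained 0.1 nM library, 1 nM piRISC and, where present, 500 nM GTSF1 in HEPES–potassium acetate buffer at 33 °C for 0–8 or 0–960 min. Reads were normalised to depth and to weakly complementary targets, three trials were pooled, and k3 was capped at 0.0001 min^-1. The pre-steady-state cleavage rate came from a burst-and-steady-state fit.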

[1] abbreviates: auxiliary factor: 500 nM mouse GTSF1.
Where [2] appears, read: auxiliary factor: none (no GTSF1).

For the sequence AGGACCUACUGCUUCCAUAGUAUUUAGUUA, the “pre-steady-state target cleavage rate” value is 0.069 ± 0.011 under setting [1] and 0.00657 ± 0.0012 under setting [2].
For AGCUCCUACAGCUUGCAUAGUAUUUAGUAA, the “pre-steady-state target cleavage rate” value under setting [1] was 1.01 ± 0.069 and the “pre-steady-state target cleavage rate” value under setting [2] worked out at 0.0506 ± 0.011.
Regarding UCGAGCUACAGCUUGCUUAGUAUUUAGUUA, the “pre-steady-state target cleavage rate” value is, setting by setting: under setting [1], 1.19 ± 0.053; under setting [2], 0.0376 ± 0.0079.
Consider AGGACCUAUCAGCUUGCAUAGUAUUUAGUUA, for which the “pre-steady-state target cleavage rate” value under setting [1] was determined as 1.25 ± 0.055 and the “pre-steady-state target cleavage rate” value under setting [2] was determined as 0.0769 ± 0.013.
As to AGGACCUACAGCUUGCAUAGAUUUUAGAAA, the “pre-steady-state target cleavage rate” value worked out at 0.247 ± 0.071 under setting [1] and 0.00123 ± 0.0069 under setting [2].
Turning to UCGACCUACAGCUUGCAUAGUAUUAGUUA, the “pre-steady-state target cleavage rate” value is, setting by setting: under setting [1], 0.346 ± 0.053; under setting [2], 0.00219 ± 0.0029.
The like results for UCCUCCUACAGCUUGAUAGUAUUUAGUUA were, in that order, 0.824 ± 0.05 and 0.00583 ± 0.0021.
As to AGGACGUACAGCUUGCAUAGUAUUUAGAAA, the “pre-steady-state target cleavage rate” value reads like this: under setting [1], 0.432 ± 0.06; under setting [2], 0.0172 ± 0.0052.
Turning to UGGAGCUACAGCUUGCUUAGUAUUUAGUUA, the “pre-steady-state target cleavage rate” value amounted to 1.33 ± 0.062 under setting [1] and 0.0391 ± 0.0074 under setting [2].
Turning to UCGAGCUUCAGCUUGCAUAGUAUUUAGUUA, the “pre-steady-state target cleavage rate” value under setting [1] worked out at 1.12 ± 0.046 and the “pre-steady-state target cleavage rate” value under setting [2] is 0.0555 ± 0.0099.
The like results for UCCACCUAGAGCUUGCAUAGUAUUUAGUUA were, in that order, 0.593 ± 0.06 and 0.0282 ± 0.0051.
For the sequence AGGACCUACAGCUUGCAUAGUAGUUUAGUUA, the “pre-steady-state target cleavage rate” value under setting [1] came out at 0.47 ± 0.036 and the “pre-steady-state target cleavage rate” value under setting [2] worked out at 0.0209 ± 0.006.
The like results for UCGACCAACAGCUUGCAUAGUAUUUAGUUA were, in that order, 1.62 ± 0.054 and 0.0825 ± 0.014.
UCGACCUACAGCUUGCAUAGUUAUUUAGUUA: the “pre-steady-state target cleavage rate” value by setting is: under setting [1], 0.0764 ± 0.016; under setting [2], 0.00495 ± 0.0031.
As for UCCACCUACACCUUGCAUAGUAUUUACAAA, the “pre-steady-state target cleavage rate” value reads like this: under setting [1], 0.309 ± 0.053; under setting [2], 0.00355 ± 0.0022.
Consider AGGACCUACAGCUUGUAUAGUAUUUAGUUA, for which the “pre-steady-state target cleavage rate” value was found to be 1.6 ± 0.061 under setting [1] and 0.0803 ± 0.015 under setting [2].
Take UGGACCUACAGCUUGGAUAGUAUUUAGAAA: the “pre-steady-state target cleavage rate” value is, setting by setting: under setting [1], 0.342 ± 0.047; under setting [2], 0.0107 ± 0.003.
The like results for AGGACCUGACAGCUUGCAUAGUAUUUAGUUA were, in that order, 1.17 ± 0.07 and 0.067 ± 0.011.
In the case of UCCUGGAUGUCCUUACAUAGUAUUUAGUUA, the “pre-steady-state target cleavage rate” value came out at 0.0237 ± 0.0056 under setting [1] and 0.0041 ± 0.0017 under setting [2].
For the sequence AGGACCUGCAGCUUGCAUAGUAUUUAGUUA, the “pre-steady-state target cleavage rate” value came to 1.38 ± 0.088 under setting [1] and 0.0689 ± 0.014 under setting [2].
Take UGGUCCUUCAGCUUGCAUAGUAUUUAGUUA: the “pre-steady-state target cleavage rate” value is, setting by setting: under setting [1], 1.22 ± 0.059; under setting [2], 0.0643 ± 0.011.
As to UGAGACCUACAGCUUGCAUAGUAUUUAGUUA, the “pre-steady-state target cleavage rate” value by setting is: under setting [1], 1.49 ± 0.1; under setting [2], 0.0826 ± 0.015.
UGGACCUACAGCUUGCAUAGUAUUUAGUCA: the “pre-steady-state target cleavage rate” value reads like this: under setting [1], 0.934 ± 0.05; under setting [2], 0.0559 ± 0.011.
Taken in the same sequence, the figures for AGGACUACAGCUUGCAUAGUAUUUAGUUA were 1.24 ± 0.066 and 0.0945 ± 0.016.
Take AGGCACCUACAGCUUGCAUAGUAUUUAGUUA: the “pre-steady-state target cleavage rate” value runs as follows: under setting [1], 2.18 ± 0.8; under setting [2], 2.2 ± 1.8.
For the sequence UGGACCUACAGCUUGCAUAGAAUUUACAAA, the “pre-steady-state target cleavage rate” value under setting [1] came to 0.29 ± 0.062 and the “pre-steady-state target cleavage rate” value under setting [2] stood at 0.00285 ± 0.0031.
Take UCGUGCUACAGCUUGCAUAGUAUUUAGUAA: the “pre-steady-state target cleavage rate” value under setting [1] was determined as 0.926 ± 0.053 and the “pre-steady-state target cleavage rate” value under setting [2] was found to be 0.0286 ± 0.0054.
Consider UCCACGUACAGCUUGCAUAGAAUUUAGUUA, for which the “pre-steady-state target cleavage rate” value runs as follows: under setting [1], 0.412 ± 0.022; under setting [2], 0.0297 ± 0.0084.
UGGACCUACAGCUUGCAUACAUUUUACAAA: the “pre-steady-state target cleavage rate” value by setting is: under setting [1], 0.00122 ± 0.006; under setting [2], 0.000487 ± 0.009.
Consider UCGAACCUACAGCUUGCAUAGUAUUUAGUUA, for which the “pre-steady-state target cleavage rate” value by setting is: under setting [1], 1.37 ± 0.046; under setting [2], 0.0781 ± 0.016.
UGGACCUACAGCAUCCAUAGUAUUUAGUUA: the “pre-steady-state target cleavage rate” value by setting is: under setting [1], 0.102 ± 0.017; under setting [2], 0.00273 ± 0.002.
Taken in the same sequence, the figures for UCGAGCCUACAGCUUGCAUAGUAUUUAGUUA were 1.46 ± 0.074 and 0.0844 ± 0.016.
Taken in the same sequence, the figures for UGGACCUACUGCUUGCAUUGUAUUUAGUUA were 0.868 ± 0.041 and 0.0358 ± 0.009.
As for UCGACCUACAGCUUCCAUAGUAAUUAGUUA, the “pre-steady-state target cleavage rate” value amounted to 0.0526 ± 0.017 under setting [1] and 0.00134 ± 0.0044 under setting [2].
As to UGGACCUACAGCAUGCAUAGUAUUUAGUAA, the “pre-steady-state target cleavage rate” value under setting [1] is 0.977 ± 0.075 and the “pre-steady-state target cleavage rate” value under setting [2] worked out at 0.0303 ± 0.0065.
Taken in the same sequence, the figures for AGGACCUCACAGCUUGCAUAGUAUUUAGUUA were 1.28 ± 0.064 and 0.102 ± 0.017.
Taken in the same sequence, the figures for UGGAGCUACAGCAUGCAUAGUAUUUAGUUA were 1.14 ± 0.042 and 0.0429 ± 0.0078.
Turning to UGGACCUACAGCUUGCAUAGUUUUUACUUA, the “pre-steady-state target cleavage rate” value is 0.0927 ± 0.013 under setting [1] and 0.0125 ± 0.0027 under setting [2].
For the sequence UCCACCUAUCAGCUUGCAUAGUAUUUAGUUA, the “pre-steady-state target cleavage rate” value reads like this: under setting [1], 1.01 ± 0.037; under setting [2], 0.0531 ± 0.011.
With UCGACAUACAGCUUGCAUAGUAUUUAGUUA, the “pre-steady-state target cleavage rate” value under setting [1] was determined as 1.38 ± 0.043 and the “pre-steady-state target cleavage rate” value under setting [2] turned out to be 0.071 ± 0.012.
Consider AGGACCUACAGCUUGGCAUAGUAUUUAGUUA, for which the “pre-steady-state target cleavage rate” value turned out to be 1.17 ± 0.17 under setting [1] and 0.0407 ± 0.0099 under setting [2].
Taken in the same sequence, the figures for AGGAGCUACAGCUUGCAUAGUAUUUAGUUA were 1.42 ± 0.055 and 0.0984 ± 0.016.
Turning to UGGACCUACAGGUUGCAAAGUAUUUAGUUA, the “pre-steady-state target cleavage rate” value was determined as 1.33 ± 0.082 under setting [1] and 0.02 ± 0.0043 under setting [2].
Turning to UGGACCAUGAGCUUGCAUAGUAUUUAGUAA, the “pre-steady-state target cleavage rate” value by setting is: under setting [1], 0.675 ± 0.045; under setting [2], 0.0285 ± 0.0075.
Regarding UCGACCUACAGGUUGCAAAGUAUUUAGUUA, the “pre-steady-state target cleavage rate” value under setting [1] was found to be 1.33 ± 0.054 and the “pre-steady-state target cleavage rate” value under setting [2] amounted to 0.0193 ± 0.0046.
UCCACCUACAGCUUGCAUAUUAUUUAGUUA: the “pre-steady-state target cleavage rate” value reads like this: under setting [1], 1.01 ± 0.075; under setting [2], 0.0312 ± 0.007.
As for UCGACCAUGAGCUUGCAUAGUAUUUAGUAA, the “pre-steady-state target cleavage rate” value under setting [1] was 0.804 ± 0.049 and the “pre-steady-state target cleavage rate” value under setting [2] worked out at 0.0343 ± 0.0083.
As for UCGACCUACAGCAAGCAUAGUAUUUAGUUA, the “pre-steady-state target cleavage rate” value under setting [1] worked out at 1.4 ± 0.083 and the “pre-steady-state target cleavage rate” value under setting [2] stood at 0.00748 ± 0.0028.
On to UGGUCCUACUGCUUGCAUAGUAUUUAGUUA, for which the “pre-steady-state target cleavage rate” value is 1.22 ± 0.05 under setting [1] and 0.0687 ± 0.01 under setting [2].
Take AGGACCUACAGCUUGCAUAGUAAUUAGAAA: the “pre-steady-state target cleavage rate” value was determined as 0.475 ± 0.071 under setting [1] and 0.00445 ± 0.0038 under setting [2].
AGGACCUACGCUUGCAUAGUAUUUAGUUA: the “pre-steady-state target cleavage rate” value reads like this: under setting [1], 1.27 ± 0.066; under setting [2], 0.0719 ± 0.013.
Consider AGGACCUUCAGCUUGCAUAGUAUUUUCAAA, for which the “pre-steady-state target cleavage rate” value is, setting by setting: under setting [1], 0.311 ± 0.038; under setting [2], 0.00593 ± 0.0032.
Turning to UGGACUUACAGCUUGCAUAGUAUUUAGUUA, the “pre-steady-state target cleavage rate” value by setting is: under setting [1], 1.45 ± 0.063; under setting [2], 0.081 ± 0.013.
On to UGGACCUACAGCUUGCAUAGCAUUUAGUUA, for which the “pre-steady-state target cleavage rate” value is, setting by setting: under setting [1], 0.379 ± 0.025; under setting [2], 0.0275 ± 0.0061.
The like results for UCCACCUACAGCUACGAUAGUAUUUAGUUA were, in that order, 0.121 ± 0.016 and 0.000346 ± 0.0072.
Consider UGGACCUACAGCUUGCUAUGUAUUUUCAAA, for which the “pre-steady-state target cleavage rate” value by setting is: under setting [1], 0.00146 ± 0.0061; under setting [2], 0.000207 ± 0.011.
Take UCGACCAACUGCUUGCAUAGUAUUUAGUUA: the “pre-steady-state target cleavage rate” value runs as follows: under setting [1], 1.43 ± 0.041; under setting [2], 0.0724 ± 0.012.
Taken in the same sequence, the figures for AGGACCUAGUCCUUGCAUAGUAUUUACAAA were 0.256 ± 0.046 and 0.00328 ± 0.0019.
As to UCGACCGUACAGCUUGCAUAGUAUUUAGUUA, the “pre-steady-state target cleavage rate” value is, setting by setting: under setting [1], 1.26 ± 0.046; under setting [2], 0.0719 ± 0.013.
On to AGGACCUACUGCUUGCUUAGUAUUUAGUUA, for which the “pre-steady-state target cleavage rate” value by setting is: under setting [1], 1.39 ± 0.087; under setting [2], 0.05 ± 0.01.
